# Measurements from PubChem BioAssay AID493014 (National Center for Advancing Translational Sciences (NCATS), 2011).
# About 170 (0.05%) of roughly 340,000 compounds were called active. The inconclusive results got no clear call from the source; some entries with a clear call stand among them for comparison. Calls come from the whole dose curve; as a rule, active = well fitted inhibition curve with a large enough effect in the signal ratio, with a control signal flat (not every such curve was filed as active); inconclusive = small, poorly fitted or top-dose-only effect, or effect the other way, or a change in a side signal; inactive = flat fitted curve, though single readings scatter; the % refers to the signal ratio. Potencies beside an inconclusive call are fits to weak or partial responses and may not hold up.
# Test: qHTS Assay to Find Inhibitors of Chronic Active B-Cell Receptor Signaling;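 for activity change, negative = inhibition: plate controls were basal doxycycline-induced cells for no effect and cells given 10 µM MG132 for full effect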
# Conditions: ABC-DLBCL IkBa-CBG/CBR reporter, luminescence ratio (green luciferase fused to IkBa over red control in TMD8 lymphoma cells), 4 h; activity change, negative = inhibition: at 46.1 µM (top of the series)
# How it was run: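 TMD8 human ABC-DLBCL cells with doxycycline-inducible IκBα–green luciferase fusion and unfused red luciferase, in 0.5% FBS medium; compounds up to 46 uM, 4 h at 37C. Green/red luminescence ratio, filter-overlap corrected, fitted to concentration-response curves.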
# Potency is the fitted concentration of half-maximal effect.
SMILES,Potency,"activity change, negative = inhibition"
Cc1ccc(OCCNS(=O)(=O)c2ccc(N3CCCC3=O)cc2)cc1C,"inconclusive: 14.1 µM [falling, partial curve, poor fit]",
CCc1nnc(SCC(=O)Nc2nccs2)n1CC,,inconclusive: 0.866%
CCOc1ccccc1N(CC(=O)Nc1cccc2ccccc12)S(C)(=O)=O,,inactive: -1.54%
CSc1cccc(NC(=O)C2CCN(S(C)(=O)=O)CC2)c1,,inconclusive: -1.26%
Cc1ccc(C)c(S(=O)(=O)Nc2ccc(C(=O)N3CCCCC3)cc2)c1,,inconclusive: 2.32%
NC(=O)C(c1ccccc1)c1ccc(C(=O)c2ccccc2)cc1 (stereo unspecified),"inconclusive: 20 µM [falling, partial curve, poor fit]",
COc1cccc(C2=C(C(C)=O)Sc3nnc(C4CCCCC4)n3N2C(C)=O)c1,,inactive: 16.5%
CN1C(=O)/C(=C/C=C2\SCCN2C)SC1=S,,inconclusive: 7.5%
COc1ccccc1Cn1c(=O)c2ccccc2n2c(SCc3csc(C)n3)nnc12,,inactive: 9.07%
C=CCC1(CC=C)CCCN1C(=O)C1CCC(=O)N(CCc2ccc(Cl)cc2)C1 (stereo unspecified),,inconclusive: -4.31%
CCOC(=O)c1c(-c2ccc(OC)cc2)csc1NC(=O)CNCc1ccco1,,inconclusive: 21.8%
COc1ccc2nc(NC(=O)CSC(C)C(=O)Nc3cc(C)on3)sc2c1 (stereo unspecified),,inactive: -25.8%
O=C(NCc1cccnc1)c1ccc(CS(=O)(=O)c2ccc(Br)cc2)o1,,inconclusive: 29.3%
COc1ccccc1NS(=O)(=O)c1cc(NC(=O)CC(C)(C)C)ccc1N1CCOCC1,,inconclusive: 12.6%
CCN(Cc1ccccc1)C(=O)c1cc2c(=O)oc3ccc(C)cc3c2s1,,inconclusive: 0.33%
COc1cc2oc(=O)cc(-c3ccc(-c4ccc(C#N)cc4)cc3)c2c(OC)c1OC,,inconclusive: 1.75%
OCCN1CCN(CC(O)COC(c2ccc(F)cc2)c2ccc(F)cc2)CC1 (stereo unspecified),,inactive: -1.25%
CCOc1ccc(-c2cc(CCCC(=O)NCc3ccc(C)cc3)no2)cc1,,inconclusive: -10.3%
CCN(CC)CCNC(=O)c1ccc(Sc2ccc(Cl)cc2)c(NC(C)=O)c1,,inconclusive: -26.3%
O=C(CNC(=O)c1ccccc1Cl)NCC(c1cccs1)N1CCOCC1 (stereo unspecified),,inactive: -3.02%
COc1ccc(/C=C/C(=O)c2ccc(NC3=NCCCS3)cc2)cc1OC,"inconclusive: 20 µM [falling, partial curve, poor fit]",
Cc1ccc(CN2CCN(/N=C\c3cccc([N+](=O)[O-])c3)CC2)cc1,,inactive: -0.682%
Cn1cc(SCC(=O)NC2CCCCC2)c2ccccc21,"inconclusive: 12.6 µM [falling, partial curve]",
COc1ccc(-c2nnc(SCC(=O)c3cccs3)o2)c(OC)c1,"inconclusive: 35.5 µM [falling, partial curve, poor fit]",
N#C/C(=N\Nc1ccc(Cl)cc1)C(=O)c1ccsc1,"inconclusive: 31.6 µM [falling, single point]",
S=C(NCc1ccco1)Nc1ccc(Cl)cc1Cl,,inactive: 0.0728%

# Single values from the list:
# Under Potency, `NC(=O)C(c1ccccc1)c1ccc(C(=O)c2ccccc2)cc1` (stereo unspecified) shows inconclusive: 20 µM [falling, partial curve, poor fit]
# Under activity change, negative = inhibition, `COc1cc2oc(=O)cc(-c3ccc(-c4ccc(C#N)cc4)cc3)c2c(OC)c1OC` shows inconclusive: 1.75%
# Under Potency, `Cc1ccc(OCCNS(=O)(=O)c2ccc(N3CCCC3=O)cc2)cc1C` shows inconclusive: 14.1 µM [falling, partial curve, poor fit]

# (cont.)

SMILES,Potency,"activity change, negative = inhibition"
COCCNC(=O)c1ccc(C2SCC(=O)N2CCc2ccccc2)cc1 (stereo unspecified),,inconclusive: 8.26%
Cc1ccc(-c2nc(CN(C)Cc3cccc4cnccc34)c(C)o2)s1,,inconclusive: 8.72%
CCn1cc(C(=O)N[C@H](C)c2ccccc2)c(=O)c2cc(F)c(N3CCN(C)CC3)cc21,"inconclusive: 32.6 µM [falling, single point]",
COc1cc(/C=N/NC(=O)CSc2ccccn2)ccc1O,,inactive: 3.59%
COc1ccc(OC)c(C2=Nn3c(nnc3-c3cc(OC)c(OC)c(OC)c3)SC2)c1,,inconclusive: -0.411%
COc1ccc2[nH]c(=O)c(CN(Cc3ccco3)Cc3nnnn3Cc3ccccc3)cc2c1,"inconclusive: 3.98 µM [falling, single point]",
N#CC1=C(N)Oc2n[nH]c(-c3cccs3)c2C1c1cccs1 (stereo unspecified),,inconclusive: -6.34%
O=C(NNC(=S)NC(=O)c1cccnc1)c1ccccc1,"inconclusive: 35.5 µM [falling, single point]",
S=C(NCc1ccco1)Nc1cc(-c2ccccc2)[nH]n1,,inconclusive: -2.63%
Nc1cc(=O)[nH]c(SCC(=O)NNC(=O)c2ccccc2)n1,"inconclusive: 20.6 µM [falling, partial curve]",
COc1ccc(N/C=C/C(=O)c2sc(-c3ccccc3)nc2C)cc1,"inconclusive: 0.794 µM [rising, full curve, poor fit]",
COC(=O)c1cccc(S(=O)(=O)N2CCC(NC(=O)NC34CC5CC(CC(C5)C3)C4)CC2)c1,,inactive: 7.32%
CC(C)C(=O)Nc1c(-c2ccc(Cl)cc2)c(=O)c2ccccc2n1C,,inconclusive: 0.446%
CC(C)(C)OC(=O)N[C@@H](Cc1ccccc1)c1nnc(S(=O)(=O)Cc2ccccc2)o1,,inconclusive: 13.6%
COc1ccc(OC)c(Nc2nc(-c3sc(NC(=O)CC(C)C)nc3C)cs2)c1,,inconclusive: -14.5%
COc1ccccc1-c1cc(N)n(S(=O)(=O)c2ccc(F)c(C)c2)n1,"inconclusive: 8.2 µM [falling, partial curve]",
COc1ccc(NC(=O)Nc2c[nH]c(=O)[nH]c2=O)cc1,,inconclusive: 2.25%
O=C1CN(C(=O)COC(=O)c2cccs2)c2ccccc2N1,,inactive: -0.205%
Cc1c(Cl)ccc2c1NC(=O)[C@]21[C@@H]2C(=O)N(Cc3ccccc3)C(=O)[C@@H]2[C@@H]2CCCN21,,inconclusive: 0.381%
COc1ccc(-c2nc(C#N)c(N3CCCCCC3)o2)cc1,,inconclusive: 4.99%
Cc1ccnc(NC(=O)c2cccc(S(=O)(=O)N3CCCc4ccccc43)c2)c1,,inconclusive: -0.517%
C=CCOc1ccc(C=NNc2ccc(S(=O)(=O)Nc3ccccc3C(=O)O)cc2[N+](=O)[O-])cc1OC,,inconclusive: 1.14%
Cc1ccc(N(CCC#N)C(=O)COC(=O)C2=COCCO2)cc1,,inactive: 0.922%
Cc1ccccc1N1CC(C(=O)Nc2ccc(S(=O)(=O)N3CCCCC3)cc2)CC1=O (stereo unspecified),,inactive: 0.287%
NS(=O)(=O)c1ccc(CCNC(=O)CSc2ccc([N+](=O)[O-])cc2)cc1,,inconclusive: 3.8%
